Experimental data from the supplement of paper PMC10849652.
Some of the results follow.

By UniProt entry, the sequences of proteins in these tests, tags left out. Where a name states a change or a piece, a line headed by the entry shows the natural chain unless it says otherwise.
UniProt Q96BP3: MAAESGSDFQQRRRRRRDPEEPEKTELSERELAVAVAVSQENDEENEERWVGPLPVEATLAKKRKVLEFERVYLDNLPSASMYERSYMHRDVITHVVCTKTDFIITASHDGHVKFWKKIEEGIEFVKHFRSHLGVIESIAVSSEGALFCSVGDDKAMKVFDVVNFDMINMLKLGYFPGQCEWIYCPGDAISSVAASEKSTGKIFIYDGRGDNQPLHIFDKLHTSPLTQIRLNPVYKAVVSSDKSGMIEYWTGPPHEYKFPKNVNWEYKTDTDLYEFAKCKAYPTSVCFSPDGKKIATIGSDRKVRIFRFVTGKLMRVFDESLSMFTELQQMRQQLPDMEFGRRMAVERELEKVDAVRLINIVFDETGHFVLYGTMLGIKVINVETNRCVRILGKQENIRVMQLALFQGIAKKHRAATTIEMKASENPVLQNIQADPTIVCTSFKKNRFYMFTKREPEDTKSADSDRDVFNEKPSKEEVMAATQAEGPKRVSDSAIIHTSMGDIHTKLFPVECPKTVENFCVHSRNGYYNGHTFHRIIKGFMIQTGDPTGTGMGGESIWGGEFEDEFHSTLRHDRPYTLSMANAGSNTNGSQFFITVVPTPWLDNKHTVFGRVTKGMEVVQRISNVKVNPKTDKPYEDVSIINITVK
UniProt O14744, whole entry, looked up: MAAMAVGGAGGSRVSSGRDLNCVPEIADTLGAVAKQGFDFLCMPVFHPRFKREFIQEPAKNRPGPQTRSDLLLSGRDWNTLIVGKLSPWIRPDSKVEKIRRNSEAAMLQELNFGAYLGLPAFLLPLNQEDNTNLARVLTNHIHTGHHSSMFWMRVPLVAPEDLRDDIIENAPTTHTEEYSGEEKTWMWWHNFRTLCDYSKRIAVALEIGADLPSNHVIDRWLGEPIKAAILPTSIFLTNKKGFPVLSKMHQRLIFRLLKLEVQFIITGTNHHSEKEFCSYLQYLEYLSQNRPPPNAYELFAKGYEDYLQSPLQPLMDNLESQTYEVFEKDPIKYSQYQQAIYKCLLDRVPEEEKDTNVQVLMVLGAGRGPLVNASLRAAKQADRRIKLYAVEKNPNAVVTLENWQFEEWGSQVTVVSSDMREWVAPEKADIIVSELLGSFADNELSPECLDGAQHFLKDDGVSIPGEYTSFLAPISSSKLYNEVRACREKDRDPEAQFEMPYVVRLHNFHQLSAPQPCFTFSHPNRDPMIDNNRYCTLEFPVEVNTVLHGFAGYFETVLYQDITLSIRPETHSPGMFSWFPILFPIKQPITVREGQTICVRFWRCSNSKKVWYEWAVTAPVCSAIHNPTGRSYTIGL
UniProt O43395: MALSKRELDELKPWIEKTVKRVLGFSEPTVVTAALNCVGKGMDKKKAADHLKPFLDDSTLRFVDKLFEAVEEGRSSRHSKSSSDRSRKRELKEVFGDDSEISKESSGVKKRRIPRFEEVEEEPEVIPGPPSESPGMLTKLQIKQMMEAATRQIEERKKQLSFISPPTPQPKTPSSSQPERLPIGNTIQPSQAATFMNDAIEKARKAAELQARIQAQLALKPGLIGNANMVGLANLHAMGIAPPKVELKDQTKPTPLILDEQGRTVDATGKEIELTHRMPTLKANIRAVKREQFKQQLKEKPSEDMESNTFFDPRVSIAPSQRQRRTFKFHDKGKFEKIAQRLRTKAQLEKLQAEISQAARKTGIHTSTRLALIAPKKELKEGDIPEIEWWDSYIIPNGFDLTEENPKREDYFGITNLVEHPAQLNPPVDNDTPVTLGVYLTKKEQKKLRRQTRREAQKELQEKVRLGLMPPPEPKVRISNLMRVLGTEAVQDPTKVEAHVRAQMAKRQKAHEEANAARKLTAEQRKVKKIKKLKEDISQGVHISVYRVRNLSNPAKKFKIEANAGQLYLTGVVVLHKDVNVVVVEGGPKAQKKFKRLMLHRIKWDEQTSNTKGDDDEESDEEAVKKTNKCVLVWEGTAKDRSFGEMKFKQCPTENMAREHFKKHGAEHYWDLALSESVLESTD
UniProt P49642: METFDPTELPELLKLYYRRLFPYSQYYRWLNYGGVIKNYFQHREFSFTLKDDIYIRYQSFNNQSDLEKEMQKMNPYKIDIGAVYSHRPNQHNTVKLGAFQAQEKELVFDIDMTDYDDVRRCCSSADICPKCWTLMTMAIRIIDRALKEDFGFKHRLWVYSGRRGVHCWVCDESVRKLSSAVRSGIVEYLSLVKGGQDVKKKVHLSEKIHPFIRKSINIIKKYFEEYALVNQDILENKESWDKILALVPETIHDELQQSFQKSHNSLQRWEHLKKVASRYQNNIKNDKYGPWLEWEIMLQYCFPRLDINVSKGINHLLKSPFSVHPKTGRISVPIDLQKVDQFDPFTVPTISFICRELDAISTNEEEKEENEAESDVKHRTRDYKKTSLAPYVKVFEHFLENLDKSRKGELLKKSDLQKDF
UniProt P05771, whole entry, looked up: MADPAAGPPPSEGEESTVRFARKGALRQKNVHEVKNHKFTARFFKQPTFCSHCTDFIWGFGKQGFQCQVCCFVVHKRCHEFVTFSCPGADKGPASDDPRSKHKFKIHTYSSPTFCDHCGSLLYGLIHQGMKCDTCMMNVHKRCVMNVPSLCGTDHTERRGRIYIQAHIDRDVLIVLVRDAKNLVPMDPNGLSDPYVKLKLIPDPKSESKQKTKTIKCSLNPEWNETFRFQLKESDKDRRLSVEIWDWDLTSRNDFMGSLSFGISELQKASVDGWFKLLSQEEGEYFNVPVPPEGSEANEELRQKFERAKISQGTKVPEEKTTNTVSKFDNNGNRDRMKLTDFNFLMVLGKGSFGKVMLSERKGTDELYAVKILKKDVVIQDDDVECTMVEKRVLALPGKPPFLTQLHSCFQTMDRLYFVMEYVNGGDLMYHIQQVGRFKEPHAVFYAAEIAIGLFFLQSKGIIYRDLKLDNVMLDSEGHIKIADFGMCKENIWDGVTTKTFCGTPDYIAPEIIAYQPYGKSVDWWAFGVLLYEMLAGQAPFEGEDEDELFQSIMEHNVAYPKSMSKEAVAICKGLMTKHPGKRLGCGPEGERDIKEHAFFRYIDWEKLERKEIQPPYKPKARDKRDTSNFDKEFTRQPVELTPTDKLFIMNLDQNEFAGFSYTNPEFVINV
UniProt Q9HCU5: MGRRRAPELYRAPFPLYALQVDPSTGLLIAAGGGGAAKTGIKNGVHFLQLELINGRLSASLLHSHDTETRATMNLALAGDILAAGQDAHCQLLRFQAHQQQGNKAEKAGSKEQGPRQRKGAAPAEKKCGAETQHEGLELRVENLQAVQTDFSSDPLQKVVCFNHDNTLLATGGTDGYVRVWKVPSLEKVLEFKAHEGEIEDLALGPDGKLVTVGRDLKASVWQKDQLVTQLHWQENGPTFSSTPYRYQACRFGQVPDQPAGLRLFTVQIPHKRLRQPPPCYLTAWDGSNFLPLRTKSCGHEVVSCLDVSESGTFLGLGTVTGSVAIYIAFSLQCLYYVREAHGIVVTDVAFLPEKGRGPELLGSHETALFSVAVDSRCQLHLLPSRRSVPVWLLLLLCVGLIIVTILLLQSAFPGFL
UniProt P07225: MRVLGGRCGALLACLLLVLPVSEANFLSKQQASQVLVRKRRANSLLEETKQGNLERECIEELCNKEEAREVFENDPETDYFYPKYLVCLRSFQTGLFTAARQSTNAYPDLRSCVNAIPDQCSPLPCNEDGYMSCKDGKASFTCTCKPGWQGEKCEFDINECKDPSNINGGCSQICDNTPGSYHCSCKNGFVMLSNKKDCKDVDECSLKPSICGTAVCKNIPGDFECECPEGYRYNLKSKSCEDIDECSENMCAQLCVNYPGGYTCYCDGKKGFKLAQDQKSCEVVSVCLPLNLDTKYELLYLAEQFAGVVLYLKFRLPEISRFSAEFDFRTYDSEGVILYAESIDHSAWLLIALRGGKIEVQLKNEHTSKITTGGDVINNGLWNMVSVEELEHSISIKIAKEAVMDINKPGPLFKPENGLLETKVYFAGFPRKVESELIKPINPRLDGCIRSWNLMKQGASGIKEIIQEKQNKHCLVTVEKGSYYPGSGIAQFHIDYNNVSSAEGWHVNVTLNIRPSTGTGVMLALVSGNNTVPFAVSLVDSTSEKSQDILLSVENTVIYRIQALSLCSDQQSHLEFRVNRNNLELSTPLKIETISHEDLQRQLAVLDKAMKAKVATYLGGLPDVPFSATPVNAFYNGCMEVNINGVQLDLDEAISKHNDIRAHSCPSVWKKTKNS
UniProt Q9UPN7: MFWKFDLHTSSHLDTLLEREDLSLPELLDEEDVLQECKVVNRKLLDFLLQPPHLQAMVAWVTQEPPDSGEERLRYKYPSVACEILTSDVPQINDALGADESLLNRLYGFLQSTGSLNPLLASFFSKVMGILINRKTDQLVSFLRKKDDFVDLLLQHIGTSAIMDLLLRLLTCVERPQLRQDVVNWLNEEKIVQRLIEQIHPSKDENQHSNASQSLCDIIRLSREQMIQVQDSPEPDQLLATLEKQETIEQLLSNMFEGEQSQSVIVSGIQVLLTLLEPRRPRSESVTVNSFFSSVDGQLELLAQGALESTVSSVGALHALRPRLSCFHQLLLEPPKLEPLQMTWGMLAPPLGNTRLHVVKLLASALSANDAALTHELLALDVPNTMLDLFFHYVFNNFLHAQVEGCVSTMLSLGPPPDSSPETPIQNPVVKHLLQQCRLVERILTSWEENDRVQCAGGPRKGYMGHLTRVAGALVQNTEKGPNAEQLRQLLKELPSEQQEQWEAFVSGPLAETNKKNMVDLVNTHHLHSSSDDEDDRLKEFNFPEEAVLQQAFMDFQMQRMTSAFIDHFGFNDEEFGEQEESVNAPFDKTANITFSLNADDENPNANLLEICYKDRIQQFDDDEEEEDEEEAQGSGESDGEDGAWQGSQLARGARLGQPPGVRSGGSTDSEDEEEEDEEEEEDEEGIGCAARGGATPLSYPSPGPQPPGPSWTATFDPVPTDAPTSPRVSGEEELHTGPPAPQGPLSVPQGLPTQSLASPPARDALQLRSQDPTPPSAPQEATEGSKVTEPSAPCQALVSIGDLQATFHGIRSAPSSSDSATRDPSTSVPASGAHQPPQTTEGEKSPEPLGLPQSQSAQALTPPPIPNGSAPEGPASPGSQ
UniProt P31321, whole entry, looked up: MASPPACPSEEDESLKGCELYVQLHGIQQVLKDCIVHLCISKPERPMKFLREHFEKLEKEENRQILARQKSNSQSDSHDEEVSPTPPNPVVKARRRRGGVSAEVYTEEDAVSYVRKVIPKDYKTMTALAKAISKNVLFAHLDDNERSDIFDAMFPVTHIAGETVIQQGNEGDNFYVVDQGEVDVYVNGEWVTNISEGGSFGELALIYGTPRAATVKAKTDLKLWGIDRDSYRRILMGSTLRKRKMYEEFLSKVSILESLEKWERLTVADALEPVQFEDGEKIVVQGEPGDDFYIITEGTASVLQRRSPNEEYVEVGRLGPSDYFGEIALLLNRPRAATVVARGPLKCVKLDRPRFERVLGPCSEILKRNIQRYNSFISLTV
UniProt Q8NAV1: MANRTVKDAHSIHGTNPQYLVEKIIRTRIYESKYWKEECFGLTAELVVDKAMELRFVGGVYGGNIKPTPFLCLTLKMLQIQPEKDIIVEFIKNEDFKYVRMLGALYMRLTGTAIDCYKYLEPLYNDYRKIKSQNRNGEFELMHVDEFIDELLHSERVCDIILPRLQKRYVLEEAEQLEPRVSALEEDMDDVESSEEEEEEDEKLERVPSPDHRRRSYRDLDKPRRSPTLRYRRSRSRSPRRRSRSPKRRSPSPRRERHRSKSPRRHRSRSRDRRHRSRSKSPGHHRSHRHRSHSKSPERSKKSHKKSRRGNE
UniProt P30041: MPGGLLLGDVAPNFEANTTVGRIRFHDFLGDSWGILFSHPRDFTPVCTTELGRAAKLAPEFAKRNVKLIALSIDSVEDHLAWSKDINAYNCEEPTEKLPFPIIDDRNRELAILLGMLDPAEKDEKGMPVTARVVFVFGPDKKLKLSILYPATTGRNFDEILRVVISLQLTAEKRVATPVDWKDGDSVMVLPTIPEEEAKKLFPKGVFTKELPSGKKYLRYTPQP
UniProt K7ELL7: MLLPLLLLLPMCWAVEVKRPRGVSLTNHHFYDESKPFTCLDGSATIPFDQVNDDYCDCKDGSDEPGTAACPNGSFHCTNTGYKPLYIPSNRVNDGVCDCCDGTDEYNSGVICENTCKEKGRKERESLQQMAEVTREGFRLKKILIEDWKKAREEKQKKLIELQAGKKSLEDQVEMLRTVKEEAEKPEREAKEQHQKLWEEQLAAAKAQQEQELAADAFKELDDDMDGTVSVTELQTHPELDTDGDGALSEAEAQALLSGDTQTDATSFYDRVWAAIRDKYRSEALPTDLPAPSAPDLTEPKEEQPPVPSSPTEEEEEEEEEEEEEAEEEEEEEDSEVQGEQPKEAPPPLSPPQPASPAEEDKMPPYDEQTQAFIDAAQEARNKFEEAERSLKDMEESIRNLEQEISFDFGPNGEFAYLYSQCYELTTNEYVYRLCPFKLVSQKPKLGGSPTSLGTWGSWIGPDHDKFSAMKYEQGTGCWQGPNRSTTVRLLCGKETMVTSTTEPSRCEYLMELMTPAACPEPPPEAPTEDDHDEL

Key:
Assay in all cases: log2 fold change, soluble protein after heating vs DMSO (PISA); higher = thermal stabilisation; K562 cells, 10 uM, 30 min; active = over 0.2 and 3.5 SD of the protein, either way, in both replicates (recomputed)
[1] = compound: COC1=CC=C(C=C1)CN2C=CC3=C2C=C(C=C3)C(=O)NO
How it was run: (§1)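 Thermal stability values are relative to control samples and come from duplicates. They are expressed as log2 fold changes. For measurement, K562 cells (2×10^6 cells/mL) received 10 μM compound for 30 min, and aliquots were heated for 3 min over 48°C-58°C, pooled, and extracted at 4°C in PBS with 0.5% NP-40. Soluble protein, the supernatant after 21,000xg for 90 min, was quantified by TMTpro 16plex LC-MS/MS with equalised channel sums.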

[2] = compound: CON(C)C(=O)N1N=C(c2cc(F)ccc2F)S[C@@]1(CCCN)c1ccccc1 [filanesib]
How it was run: as §1

[3] = compound: CO[C@H]1C[C@@H]2CC[C@@H](C)[C@@](O)(O2)C(=O)C(=O)N2CCCC[C@H]2C(=O)O[C@H]([C@H](C)C[C@@H]2CC[C@H](n3cnnn3)[C@H](OC)C2)CC(=O)[C@H](C)/C=C(\C)[C@@H](O)[C@@H](OC)C(=O)[C@H](C)C[C@H](C)/C=C/C=C/C=C/1C [zotarolimus]
How it was run: as §1

[4] = compound: COc1cc(C(=O)O)ccc1NC(=O)[C@@H]1N[C@@H](CC(C)(C)C)[C@](C#N)(c2ccc(Cl)cc2F)[C@H]1c1cccc(Cl)c1F [idasanutlin]
How it was run: as §1

[5] = compound: COc1cc(Nc2ncc3c(n2)-c2ccc(Cl)cc2C(c2c(F)cccc2OC)=NC3)ccc1C(=O)O [alisertib]
How it was run: as §1

[6] = compound: COc1cc2nc(-c3cc(F)ccc3O)nc(N[C@@H]3CNC[C@H]3C(C)(C)O)c2cc1OC
How it was run: as §1

[7] = compound: COc1cc2ncnc(Nc3ccc(F)c(Cl)c3)c2cc1OCCCN1CCOCC1 [gefitinib]
How it was run: as §1

[8] = compound: COc1cccc2cc(-c3nc([C@H]4CC[C@H](C(=O)O)CC4)n4ncnc(N)c34)[nH]c12
How it was run: as §1

[9] = compound: CS(=O)(=O)CCNCc1ccc(-c2ccc3ncnc(Nc4ccc(OCc5cccc(F)c5)c(Cl)c4)c3c2)o1 [lapatinib]
How it was run: as §1

[10] = compound: CS(=O)(=O)N1CCN(Cc2cc3nc(-c4cccc5[nH]ncc45)nc(N4CCOCC4)c3s2)CC1 [pictilisib]
How it was run: as §1

Measured: log2 fold change

PPP2R2D (UniProt Q66LE6)
inactive: [1] -0.047 | [2] -0.027 | [3] -0.06 | [4] 0.075 | [5] -0.15 | [6] -0.026 | [7] 0.075 | [8] 0.021 | [9] -0.244 | [10] 0.022

PPWD1 (UniProt Q96BP3)
inactive: [1] 0.05 | [2] -0.059 | [3] -0.003 | [4] -0.033 | [5] -0.026 | [6] 0.071 | [7] 0 | [8] 0.005 | [9] -0.022 | [10] 0.044

PPP1R2 (UniProt P41236)
inactive: [1] 0.05 | [2] -0.022 | [3] -0.002 | [4] 0.005 | [5] -0.008 | [6] -0.023 | [7] -0.03 | [8] 0.091 | [9] -0.004 | [10] 0.009

PRKAR2B (UniProt P31323)
active: [6] -0.63
inactive: [1] -0.032 | [2] 0.06 | [3] 0.153 | [4] 0.05 | [5] -0.007 | [7] -0.026 | [8] -0.024 | [9] 0.048 | [10] -0.056

PRELID2 (UniProt Q8N945)
inactive: [1] -0.091

PRDX1 (UniProt Q06830)
inactive: [1] -0.029 | [2] -0.061 | [3] 0 | [4] -0.015 | [5] -0.012 | [6] -0.016 | [7] -0.006 | [8] 0.057 | [9] 0.025 | [10] 0.066

PRMT5 (UniProt O14744)
inactive: [1] 0.034 | [2] -0.038 | [3] 0.017 | [4] -0.011 | [5] -0.04 | [6] 0.045 | [7] 0.029 | [8] 0.019 | [9] 0.003 | [10] -0.005

PPP2R1B isoform 2 (UniProt P30154)
inactive: [1] 0.078 | [2] -0.103 | [3] 0.013 | [4] -0.02 | [5] -0.092 | [6] -0.05 | [7] 0.033 | [8] -0.019 | [9] -0.015 | [10] 0.111

PRPF3 (UniProt O43395)
inactive: [1] 0.18 | [2] -0.038 | [3] -0.048 | [4] -0.029 | [5] 0.031 | [6] -0.07 | [7] 0.06 | [8] 0.072 | [9] -0.02 | [10] -0.022

PRIM1 (UniProt P49642)
inactive: [1] 0.04 | [2] 0.001 | [3] 0.073 | [4] -0.06 | [5] 0.052 | [6] -0.012 | [7] 0.011 | [8] -0.053 | [9] 0.007 | [10] 0.021

PRKCB isoform 2 (UniProt P05771)
inactive: [1] -0.011 | [2] -0.022 | [3] 0.046 | [4] -0.028 | [5] -0.051 | [6] 0.035 | [7] 0.001 | [8] -0.036 | [9] -0.008 | [10] 0.035

PRKAA1 isoform 2 (UniProt Q13131)
inactive: [1] 0.029 | [2] -0.043 | [3] -0.007 | [4] 0.013 | [5] -0.047 | [6] -0.014 | [7] 0.004 | [8] 0.016 | [9] -0.008 | [10] -0.03

PREB (UniProt Q9HCU5)
inactive: [1] -0.029 | [2] -0.068 | [3] -0.006 | [4] 0.009 | [5] 0.1 | [6] 0.04 | [7] -0.008 | [8] 0.019 | [9] 0.019 | [10] 0.053

PRKCI (UniProt P41743)
inactive: [1] -0.024 | [2] 0.036 | [3] 0.051 | [4] -0.007 | [5] -0.037 | [6] 0.042 | [7] 0.022 | [8] -0.023 | [9] 0.022 | [10] 0.004

PRKAB2 (UniProt O43741)
inactive: [1] 0.038 | [2] -0.167 | [3] 0.109 | [4] 0.14 | [5] 0.053 | [6] -0.074 | [7] 0.004 | [8] 0.057 | [9] 0.131 | [10] 0.111

PROS1 (UniProt P07225)
inactive: [1] -0.038 | [2] 0.072 | [3] -0.044 | [4] 0.081 | [5] 0.047 | [6] -0.062 | [7] -0.017 | [8] 0.212 | [9] -0.035 | [10] 0.017

PPP6R1 (UniProt Q9UPN7)
inactive: [1] -0.002 | [2] -0.072 | [3] -0.005 | [4] -0.032 | [5] -0.098 | [6] -0.055 | [7] 0.012 | [8] 0.014 | [9] 0.016 | [10] 0

PRKAR1B (UniProt P31321)
inactive: [1] 0.1 | [2] 0.034 | [3] 0.011 | [4] -0.099 | [5] 0.02 | [6] 0.027 | [7] 0.051 | [8] -0.162 | [9] 0.004 | [10] 0.199

PRPF38A (UniProt Q8NAV1)
inactive: [1] -0.113 | [2] 0.046 | [3] -0.014 | [4] 0.035 | [5] -0.033 | [6] 0.041 | [7] 0.009 | [8] 0.002 | [9] -0.035 | [10] 0.085

PRPF18 (UniProt Q99633)
inactive: [1] 0 | [2] -0.009 | [3] 0.012 | [4] -0.024 | [5] 0.012 | [6] -0.05 | [7] 0.089 | [8] 0.042 | [9] 0.025 | [10] -0.015

PPP1R35 (UniProt Q8TAP8)
inactive: [1] 0.003 | [2] 0.026 | [3] -0.004 | [4] 0.196 | [5] -0.003 | [6] -0.125 | [7] 0.027 | [8] 0.083 | [9] 0.011 | [10] -0.068

PRDX6 (UniProt P30041)
inactive: [1] -0.027 | [2] -0.058 | [3] 0.019 | [4] -0.013 | [5] -0.044 | [6] 0.03 | [7] 0.039 | [8] 0.022 | [9] -0.051 | [10] 0.025

PPP6C isoform 3 (UniProt O00743)
inactive: [1] -0.071 | [2] -0.022 | [3] 0.015 | [4] -0.005 | [5] -0.04 | [6] -0.006 | [7] 0.001 | [8] 0.036 | [9] -0.011 | [10] 0.02

2 records drawn at random from those above:
PPP1R2 (UniProt P41236)
inactive: [1] 0.05 | [2] -0.022 | [3] -0.002 | [4] 0.005 | [5] -0.008 | [6] -0.023 | [7] -0.03 | [8] 0.091 | [9] -0.004 | [10] 0.009

PRELID2 (UniProt Q8N945)
inactive: [1] -0.091

Continued:

PRDX2 (UniProt P32119)
inactive: [1] -0.008 | [2] -0.031 | [3] 0.005 | [4] -0.003 | [5] -0.012 | [6] 0.021 | [7] 0.006 | [8] 0.074 | [9] -0.051 | [10] 0.032

PRKCE (UniProt Q02156)
inactive: [1] -0.024 | [2] -0.082 | [3] 0 | [4] -0.085 | [5] -0.078 | [6] 0.012 | [7] 0.029 | [8] -0.104 | [9] 0.025 | [10] 0.099

PPP2R5C isoform 4 (UniProt Q13362)
inactive: [1] 0.125 | [2] -0.018 | [3] -0.019 | [4] 0.017 | [5] 0.031 | [6] 0.155 | [7] -0.004 | [8] 0.002 | [9] 0.053 | [10] 0.021

PRKCSH (UniProt K7ELL7)
inactive: [1] 0.013 | [2] 0.096 | [3] 0.036 | [4] -0.066 | [5] 0.062 | [6] 0.102 | [7] 0.087 | [8] -0.169 | [9] -0.008

PPP1R7 (UniProt Q15435)
inactive: [1] -0.032 | [2] -0.08 | [3] -0.017 | [4] -0.065 | [5] -0.039 | [6] 0.008 | [7] -0.002 | [8] 0.026 | [9] -0.038 | [10] -0.008

PPP1R14B (UniProt Q96C90)
inactive: [1] 0.039 | [2] 0.082 | [3] 0.203 | [4] -0.036 | [5] -0.002 | [6] -0.195 | [7] 0.044 | [8] 0.003 | [9] 0.124

PRKACA (UniProt P17612)
inactive: [1] 0.05 | [2] -0.076 | [3] -0.034 | [4] 0.006 | [5] -0.078 | [6] 0.088 | [7] -0.004 | [8] 0.028 | [9] 0.025 | [10] 0.068

PPP2CA (UniProt P67775)
inactive: [1] -0.016 | [2] 0.008 | [3] 0.01 | [4] -0.037 | [5] -0.029 | [6] -0.019 | [7] -0.008 | [8] 0.001 | [9] -0.019 | [10] -0.015
